Experimental data as given in publication PMC11601944.
No constants are given. Whether binding was seen depends on the method and setting. In cells and extracts the contact can be indirect. Some results given as binding are weak or reduced against the parent protein; the word gives no strength. Blank lines part the entries; values can stand above or below the molecule they belong to.

By UniProt entry, the sequences of proteins in these tests, tags left out.
UniProt Q14789: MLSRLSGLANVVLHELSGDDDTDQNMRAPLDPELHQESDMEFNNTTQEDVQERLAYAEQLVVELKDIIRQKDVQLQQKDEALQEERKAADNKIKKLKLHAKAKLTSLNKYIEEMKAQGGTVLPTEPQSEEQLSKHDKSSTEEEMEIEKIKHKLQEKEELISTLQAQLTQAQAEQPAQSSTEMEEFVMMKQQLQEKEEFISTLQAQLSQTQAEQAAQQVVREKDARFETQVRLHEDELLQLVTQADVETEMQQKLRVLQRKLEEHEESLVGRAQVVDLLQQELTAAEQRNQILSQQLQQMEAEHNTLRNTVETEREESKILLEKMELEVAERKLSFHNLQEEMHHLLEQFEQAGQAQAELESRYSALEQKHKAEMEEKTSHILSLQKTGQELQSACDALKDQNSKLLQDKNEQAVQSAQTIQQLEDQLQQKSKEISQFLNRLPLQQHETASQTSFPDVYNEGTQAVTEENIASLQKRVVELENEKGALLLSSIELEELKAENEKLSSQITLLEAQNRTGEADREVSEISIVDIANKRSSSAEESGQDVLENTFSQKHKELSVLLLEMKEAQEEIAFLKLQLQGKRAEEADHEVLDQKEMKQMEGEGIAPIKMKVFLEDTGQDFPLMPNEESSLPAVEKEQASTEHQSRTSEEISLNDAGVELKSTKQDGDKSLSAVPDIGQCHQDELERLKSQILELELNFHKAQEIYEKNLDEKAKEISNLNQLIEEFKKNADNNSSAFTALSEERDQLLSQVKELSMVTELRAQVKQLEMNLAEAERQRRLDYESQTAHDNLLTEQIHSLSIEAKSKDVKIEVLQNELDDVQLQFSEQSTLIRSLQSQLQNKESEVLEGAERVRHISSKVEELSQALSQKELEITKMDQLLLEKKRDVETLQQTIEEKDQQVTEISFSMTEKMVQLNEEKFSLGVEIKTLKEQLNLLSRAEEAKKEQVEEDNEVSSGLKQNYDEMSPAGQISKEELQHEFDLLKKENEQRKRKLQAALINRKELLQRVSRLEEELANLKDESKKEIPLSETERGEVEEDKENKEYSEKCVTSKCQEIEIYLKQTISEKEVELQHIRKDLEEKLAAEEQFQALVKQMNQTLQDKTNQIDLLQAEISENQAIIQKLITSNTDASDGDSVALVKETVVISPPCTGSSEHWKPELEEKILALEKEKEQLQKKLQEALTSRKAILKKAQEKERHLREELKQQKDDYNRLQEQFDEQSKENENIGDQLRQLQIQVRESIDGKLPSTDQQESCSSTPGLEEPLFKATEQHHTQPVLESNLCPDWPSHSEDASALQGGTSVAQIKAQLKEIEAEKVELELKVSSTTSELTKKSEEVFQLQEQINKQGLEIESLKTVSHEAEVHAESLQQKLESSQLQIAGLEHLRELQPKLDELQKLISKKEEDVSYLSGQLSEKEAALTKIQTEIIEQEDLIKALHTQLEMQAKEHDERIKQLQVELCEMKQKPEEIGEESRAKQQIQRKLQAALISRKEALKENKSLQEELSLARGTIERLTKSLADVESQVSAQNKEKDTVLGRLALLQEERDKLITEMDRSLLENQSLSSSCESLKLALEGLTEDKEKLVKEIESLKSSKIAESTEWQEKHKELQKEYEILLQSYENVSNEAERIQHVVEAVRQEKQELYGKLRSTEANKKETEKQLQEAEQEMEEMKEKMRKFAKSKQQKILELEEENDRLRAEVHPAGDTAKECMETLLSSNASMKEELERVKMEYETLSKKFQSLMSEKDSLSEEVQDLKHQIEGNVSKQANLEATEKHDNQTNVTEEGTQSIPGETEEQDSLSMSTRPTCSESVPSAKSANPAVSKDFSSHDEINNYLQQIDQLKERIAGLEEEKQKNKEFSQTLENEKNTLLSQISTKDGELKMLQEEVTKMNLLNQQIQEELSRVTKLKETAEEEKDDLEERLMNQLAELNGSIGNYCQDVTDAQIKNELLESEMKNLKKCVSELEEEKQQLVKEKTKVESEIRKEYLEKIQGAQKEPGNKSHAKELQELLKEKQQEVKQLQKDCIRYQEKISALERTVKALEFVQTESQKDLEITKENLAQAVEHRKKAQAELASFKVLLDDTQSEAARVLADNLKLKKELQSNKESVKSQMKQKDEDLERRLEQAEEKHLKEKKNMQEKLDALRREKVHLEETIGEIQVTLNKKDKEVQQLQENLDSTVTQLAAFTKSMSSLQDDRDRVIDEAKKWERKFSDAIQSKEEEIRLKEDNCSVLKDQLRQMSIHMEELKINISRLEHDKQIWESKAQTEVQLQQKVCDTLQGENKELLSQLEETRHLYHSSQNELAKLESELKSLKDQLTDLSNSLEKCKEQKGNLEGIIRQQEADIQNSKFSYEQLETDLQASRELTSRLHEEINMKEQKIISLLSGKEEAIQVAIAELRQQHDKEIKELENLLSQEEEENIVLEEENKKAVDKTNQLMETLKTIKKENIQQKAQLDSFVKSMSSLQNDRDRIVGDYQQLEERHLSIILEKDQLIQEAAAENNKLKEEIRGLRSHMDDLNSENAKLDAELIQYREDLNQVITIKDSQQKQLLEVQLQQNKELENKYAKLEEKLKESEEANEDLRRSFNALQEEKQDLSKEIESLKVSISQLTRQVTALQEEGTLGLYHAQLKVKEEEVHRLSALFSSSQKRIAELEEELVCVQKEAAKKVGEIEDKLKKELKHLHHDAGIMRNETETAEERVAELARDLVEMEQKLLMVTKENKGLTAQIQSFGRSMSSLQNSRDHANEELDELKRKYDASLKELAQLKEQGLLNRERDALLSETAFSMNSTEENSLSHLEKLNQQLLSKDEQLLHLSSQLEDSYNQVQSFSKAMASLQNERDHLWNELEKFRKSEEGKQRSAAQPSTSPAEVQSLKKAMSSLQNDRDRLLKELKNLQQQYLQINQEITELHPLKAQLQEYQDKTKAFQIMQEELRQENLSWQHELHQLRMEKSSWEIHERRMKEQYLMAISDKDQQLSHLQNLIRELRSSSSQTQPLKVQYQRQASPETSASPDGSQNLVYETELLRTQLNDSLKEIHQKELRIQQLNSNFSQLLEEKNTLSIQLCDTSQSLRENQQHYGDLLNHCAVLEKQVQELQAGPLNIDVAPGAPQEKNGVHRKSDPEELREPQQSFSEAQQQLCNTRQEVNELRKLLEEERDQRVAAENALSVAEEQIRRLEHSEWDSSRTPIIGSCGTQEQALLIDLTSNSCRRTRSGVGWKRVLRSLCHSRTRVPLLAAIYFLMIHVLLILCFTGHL

What was measured:
[1] = target: T1, C2GnT-2 (human (endogenous in LSG and HSG cells)) (UniProt O95395); assay: co-IP; protein extracts of HSG cells (20 mM Tris-HCl pH 7.4, 150 mM NaCl, 1% Igepal, protease inhibitors); 500 ug total protein per assay; antibody-coated Protein-A/G-Sepharose beads; Western blot; control IgG anti-integrin alpha6
T1 sequence: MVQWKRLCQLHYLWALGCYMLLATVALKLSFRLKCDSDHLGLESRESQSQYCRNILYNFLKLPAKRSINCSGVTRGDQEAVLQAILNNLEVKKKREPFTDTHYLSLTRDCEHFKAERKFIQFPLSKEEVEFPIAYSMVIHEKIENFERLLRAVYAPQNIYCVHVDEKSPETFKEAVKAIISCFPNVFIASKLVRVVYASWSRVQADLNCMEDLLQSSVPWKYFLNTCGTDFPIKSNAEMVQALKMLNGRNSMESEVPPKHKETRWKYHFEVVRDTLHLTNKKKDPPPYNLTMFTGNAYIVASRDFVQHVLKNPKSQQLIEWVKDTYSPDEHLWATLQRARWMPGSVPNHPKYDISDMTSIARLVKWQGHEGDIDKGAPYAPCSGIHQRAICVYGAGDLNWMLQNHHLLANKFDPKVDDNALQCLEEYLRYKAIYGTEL

[2] = target: T2, Gal3-O-sulfotransferase 2 (human (endogenous in LSG and HSG cells)) (UniProt Q9H3Q3); assay: as above
T2 sequence: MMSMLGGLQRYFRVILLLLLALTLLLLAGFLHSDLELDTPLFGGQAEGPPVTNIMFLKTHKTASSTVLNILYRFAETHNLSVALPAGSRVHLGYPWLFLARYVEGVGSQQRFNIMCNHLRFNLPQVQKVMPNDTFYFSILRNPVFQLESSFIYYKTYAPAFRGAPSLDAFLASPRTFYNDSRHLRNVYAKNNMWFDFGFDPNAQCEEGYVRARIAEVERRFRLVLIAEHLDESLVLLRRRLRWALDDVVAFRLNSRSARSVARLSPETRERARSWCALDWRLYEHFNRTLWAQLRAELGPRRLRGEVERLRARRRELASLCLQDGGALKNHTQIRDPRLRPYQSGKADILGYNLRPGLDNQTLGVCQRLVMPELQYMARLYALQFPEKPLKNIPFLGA

[3] = target: T3, Gal3-O-sulfotransferase 4 (human (endogenous in LSG and HSG cells)) (UniProt Q96RP7); assay: as above
T3 sequence: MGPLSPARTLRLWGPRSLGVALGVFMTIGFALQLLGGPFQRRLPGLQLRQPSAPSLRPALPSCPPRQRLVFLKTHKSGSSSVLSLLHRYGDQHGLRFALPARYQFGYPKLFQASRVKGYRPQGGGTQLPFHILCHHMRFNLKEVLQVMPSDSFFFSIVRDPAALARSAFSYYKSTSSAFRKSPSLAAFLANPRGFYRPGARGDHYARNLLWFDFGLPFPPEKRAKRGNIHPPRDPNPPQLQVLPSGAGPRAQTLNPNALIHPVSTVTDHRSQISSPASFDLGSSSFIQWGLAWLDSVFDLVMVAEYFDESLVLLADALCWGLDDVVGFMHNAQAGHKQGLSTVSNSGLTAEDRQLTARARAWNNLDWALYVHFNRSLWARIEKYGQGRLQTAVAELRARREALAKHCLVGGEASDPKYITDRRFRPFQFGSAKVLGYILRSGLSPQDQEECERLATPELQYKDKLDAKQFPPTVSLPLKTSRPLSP

[4] = target: T1, C2GnT-2 (human (endogenous in LSG and HSG cells)); assay: co-IP; pooled protein extracts of LSG from patients with SjD or controls (20 mM Tris-HCl pH 7.4, 150 mM NaCl, 1% Igepal, protease inhibitors); 500 ug total protein per assay; antibody-coated Protein-A/G-Sepharose beads; Western blot; control IgG anti-integrin alpha6
[5] = target: T2, Gal3-O-sulfotransferase 2 (human (endogenous in LSG and HSG cells)); assay: as above
[6] = target: T3, Gal3-O-sulfotransferase 4 (human (endogenous in LSG and HSG cells)); assay: as above
[7] = target: T4, GM130 (human (endogenous in LSG and HSG cells)) (UniProt Q08379); assay: co-IP; protein extracts of HSG cells (20 mM Tris-HCl pH 7.4, 150 mM NaCl, 1% Igepal, protease inhibitors); 500 ug total protein per assay; antibody-coated Protein-A/G-Sepharose beads; Western blot; control IgG anti-integrin alpha6
T4 sequence: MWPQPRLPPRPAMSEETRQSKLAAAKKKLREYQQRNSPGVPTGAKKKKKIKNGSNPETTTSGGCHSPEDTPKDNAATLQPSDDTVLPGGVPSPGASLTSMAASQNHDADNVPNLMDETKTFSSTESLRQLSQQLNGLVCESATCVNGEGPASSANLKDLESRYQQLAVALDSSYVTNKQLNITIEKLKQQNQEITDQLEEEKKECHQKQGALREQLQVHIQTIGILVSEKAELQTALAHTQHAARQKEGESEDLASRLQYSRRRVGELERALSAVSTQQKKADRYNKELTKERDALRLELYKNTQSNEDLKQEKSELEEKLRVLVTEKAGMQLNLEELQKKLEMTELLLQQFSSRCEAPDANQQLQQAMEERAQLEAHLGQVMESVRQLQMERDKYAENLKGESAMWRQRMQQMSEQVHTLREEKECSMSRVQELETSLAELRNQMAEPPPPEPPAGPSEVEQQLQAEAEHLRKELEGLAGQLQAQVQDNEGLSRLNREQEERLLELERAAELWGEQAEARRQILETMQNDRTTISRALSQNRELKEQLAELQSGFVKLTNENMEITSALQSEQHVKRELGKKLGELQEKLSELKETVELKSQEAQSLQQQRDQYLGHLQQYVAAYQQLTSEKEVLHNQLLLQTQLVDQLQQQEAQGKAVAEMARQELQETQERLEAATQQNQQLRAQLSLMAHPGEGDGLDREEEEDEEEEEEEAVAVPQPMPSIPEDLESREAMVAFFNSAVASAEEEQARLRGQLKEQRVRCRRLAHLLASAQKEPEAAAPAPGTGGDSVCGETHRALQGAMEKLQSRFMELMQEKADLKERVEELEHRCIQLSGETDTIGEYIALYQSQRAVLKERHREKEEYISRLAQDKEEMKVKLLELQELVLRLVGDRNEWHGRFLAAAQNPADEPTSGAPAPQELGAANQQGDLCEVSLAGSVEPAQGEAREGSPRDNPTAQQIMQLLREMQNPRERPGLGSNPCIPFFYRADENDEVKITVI

[8] = target: Giantin (human (endogenous in LSG and HSG cells)) (UniProt Q14789); assay: as above
[9] = target: Giantin (human (endogenous in LSG and HSG cells)) (UniProt Q14789); assay: co-IP; pooled protein extracts of LSG from patients with SjD or controls (20 mM Tris-HCl pH 7.4, 150 mM NaCl, 1% Igepal, protease inhibitors); 500 ug total protein per assay; antibody-coated Protein-A/G-Sepharose beads; Western blot; control IgG anti-integrin alpha6

binding [1]: binds | binding [2]: binds | binding [3]: binds | binding [4]: binds | binding [5]: binds | binding [6]: binds
Molecule: Giantin (from UniProt Q14789 1-3259)

binding [2]: no binding | binding [5]: no binding
B1: GM130 (protein, UniProt Q08379 1-1002)
chain: T4 sequence

binding [7]: binds | binding [8]: binds
B2: GNT-1 (enzyme, UniProt P26572 1-445)
chain: MLKKQSAGLVLWGAILFVAWNALLLLFFWTRPAPGRPPSVSALDGDPASLTREVIRLAQDAEVELERQRGLLQQIGDALSSQRGRVPTAAPPAQPRVPVTPAPAVIPILVIACDRSTVRRCLDKLLHYRPSAELFPIIVSQDCGHEETAQAIASYGSAVTHIRQPDLSSIAVPPDHRKFQGYYKIARHYRWALGQVFRQFRFPAAVVVEDDLEVAPDFFEYFRATYPLLKADPSLWCVSAWNDNGKEQMVDASRPELLYRTDFFPGLGWLLLAELWAELEPKWPKAFWDDWMRRPEQRQGRACIRPEISRTMTFGRKGVSHGQFFDQHLKFIKLNQQFVHFTQLDLSYLQREAYDRDFLARVYGAPQLQVEKVRTNDRKELGEVRVQYTGRDSFKAFAKALGVMDDLKSGVPRAGYRGIVTFQFRGRRVHLAPPLTWEGYDPSWN

binding [8]: binds | binding [9]: binds
B3: Gal3-O-sulfotransferase 4 (enzyme, UniProt Q96RP7 1-486)
chain: T3 sequence
